Laboratory results: PubChem BioAssay AID504467 (National Center for Advancing Translational Sciences (NCATS), 2011)
The whole screen tested about 330,000 compounds, of which about 7,700 (2.3%) were called active. The shares of active, inactive and inconclusive entries below differ from those in the screen. Calls follow the shape of the dose curve; as a rule, active = well fitted inhibition curve with a large enough effect; inconclusive = small, poorly fitted or top-dose-only effect, or effect the other way; inactive = flat fitted curve, though single readings scatter. Where the call is inconclusive, the potency comes from a doubtful curve fit.

Test: qHTS screen for small molecules that inhibit ELG1-dependent DNA repair in human embryonic kidney (HEK293T) cells expressing luciferase-tagged ELG1; also: nearly all actives have a fitted effect of over 55% in size
Conditions: HEK293T ELG1-luciferase reporter, luminescence, 16 h, DNA damage induced by 5-fluorouridine; activity change, negative = inhibition: at 46.1 µM (top of the series)
In short: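 Luminescence from the luciferase reporter, measured 30 min after ONE-Glo reagent at room temperature, was the read-out. Beforehand, 2,000 cells per well were exposed for 16 hr at 37 °C to 5-fluorouridine together with compound or vehicle.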
% is scaled to controls: 0 for no effect and ±100 for the full control effect; potency is read from the fitted curve at half-maximal effect.

Question: For `O=C(CSc1ccc(Cl)cc1)N1CCN(c2ccc([N+](=O)[O-])cc2Cl)CC1`, which Potency is on record?
Answer: The Potency was inconclusive: 25.9 µM [inhibitor, single point].

Question: For `CN(c1ccccc1)S(=O)(=O)c1ccc(C(=O)NCC2CCCO2)cc1` (configuration not stated), which Potency is on record?
Answer: Its Potency is “inactive”.

Question: Which Potency does the source give for `CC(C)(C)c1ccc(OCC(=O)N2CCN(c3ccccn3)CC2)cc1` here?
Answer: The Potency was inconclusive: 14.1 µM [activator, single point].

Question: With `CN(Cc1nc2ccccc2c(=O)[nH]1)C(=O)c1ccc(S(=O)(=O)N(C)C)cc1` as the molecule, how does the Potency read?
Answer: Its Potency is “inactive”.

Question: With `Cc1ccccc1NC(=O)CSc1n[nH]c(-c2ccccn2)n1` as the molecule, how does the Potency read?
Answer: Its Potency is inconclusive: 13 µM [inhibitor, partial curve].

Question: Which Potency does the source give for `CC(Oc1ccc2c(-c3ccccc3)cc(=O)oc2c1)C(=O)N[C@H](Cc1c[nH]c2ccccc12)C(=O)O` (some centres not stated) here?
Answer: The Potency was inconclusive: 1.83 µM [activator, partial curve, poor fit].

Question: With `CCOc1ccc(NC(=O)CC2C(=O)N(c3ccc(OC)cc3)C(=O)N2CCc2ccc(OC)c(OC)c2)cc1` (configuration not stated) as the molecule, how does the Potency read?
Answer: Its Potency is inconclusive: 29.1 µM [inhibitor, single point].

Question: Which Potency does the source give for `COc1ccc(NC(=O)c2ccc3c(c2)n(C)c(=O)n3C)cc1` here?
Answer: Its Potency is inconclusive: 29.1 µM [activator, single point].

Question: With `COC(=O)CSc1nnc2c3c4c(sc3nc(-n3nc(C)cc3C)n12)COC(C)(C)C4` as the molecule, how does the Potency read?
Answer: The Potency was inconclusive: 11.2 µM [inhibitor, partial curve].

Question: Which Potency does the source give for `CCOC(=O)CN(C(=O)CSc1nnc2c(n1)[nH]c1ccc(F)cc12)c1ccccc1` here?
Answer: The Potency was inconclusive: 23.1 µM [inhibitor, partial curve, poor fit].

Question: Which Potency does the source give for `COC(=O)c1ccc(NC(=O)C(=O)c2c[nH]c3ccccc23)cc1` here?
Answer: Its Potency is inconclusive: 14.6 µM [activator, partial curve, poor fit].

Question: Which Potency does the source give for `CN(C)CCCNc1cc(O)c2ncccc2c1` here?
Answer: Its Potency is inconclusive: 25.9 µM [inhibitor, single point].

Question: For `Cc1cc(C)cc(NC(=O)CN(c2ccc(F)cc2)S(C)(=O)=O)c1`, which Potency is on record?
Answer: Its Potency is inconclusive: 16.4 µM [inhibitor, partial curve, poor fit].

Question: With `CCOC(=O)c1cc(-c2ccccc2)sc1NC(=O)CN1C(=O)NC(CC)(c2ccccc2)C1=O` (configuration not stated) as the molecule, how does the Potency read?
Answer: Its Potency is inconclusive: 9.2 µM [inhibitor, partial curve, poor fit].

Question: For `CCOC(=O)c1sc2nc3c(SCCC(=O)O)cc(C(=O)c4cc(OC)ccc4O)cn3c(=O)c2c1C`, which Potency is on record?
Answer: The Potency was “inactive”.

Question: For `Cn1nnnc1SCC(=O)Nc1nn(-c2ccccc2)nc1C(N)=O`, which activity change, negative = inhibition is on record?
Answer: The activity change, negative = inhibition was inconclusive: 59.3% [activator].

Question: For `Cc1ccc(-c2nc3cnccn3c2Nc2ccc3c(c2)OCCO3)o1`, which Potency is on record?
Answer: Its Potency is inconclusive: 10.3 µM [activator, partial curve].

Question: With `CCN1CCN(CC(=O)N2N=C(c3cccs3)CC2c2ccc(C)cc2)C(=O)C1=O` (configuration not stated) as the molecule, how does the Potency read?
Answer: The Potency was “inactive”.

Question: For `CCN(CCCNC(=O)CSc1cc(=O)n(C)c2cc(Cl)ccc12)Cc1ccccc1`, which Potency is on record?
Answer: Its Potency is inconclusive: 23.1 µM [activator, partial curve].

Question: Which Potency does the source give for `O=C(c1cccc(C(=O)N2CCN(c3ccccc3F)CC2)n1)N1CCN(c2ccccc2F)CC1` here?
Answer: The Potency was inconclusive: 29.1 µM [inhibitor, single point].

Question: Which Potency does the source give for `CC(C)(C)c1ccc(C(=O)NN2C(=O)CSC2=S)cc1` here?
Answer: Its Potency is inconclusive: 4.61 µM [activator, full curve, poor fit].

Question: For `CC(C)(C)c1ccccc1NC(=O)c1ccc(-n2cncn2)c([N+](=O)[O-])c1`, which Potency is on record?
Answer: The Potency was “inactive”.

Question: Which Potency does the source give for `COc1cccc(C(=O)Oc2ccccc2/C=C\C(=O)c2cc3ccccc3o2)c1` here?
Answer: The Potency was inconclusive: 4.61 µM [activator, single point].

Question: Which Potency does the source give for `CCSC1=NSC2=NC(=O)/C(=C\c3coc4ccccc4c3=O)C(=N)N12` here?
Answer: Its Potency is “inactive”.

Question: With `CC(NC(=O)CN1C(=O)NC2(CCCCCC2)C1=O)c1ccccc1` (configuration not stated) as the molecule, how does the Potency read?
Answer: Its Potency is “inactive”.

Question: With `OC[C@H]1O[C@@H](n2cnc3c(Nc4ccccc4)ncnc32)[C@H](O)[C@@H]1O` as the molecule, how does the Potency read?
Answer: The Potency was inconclusive: 9.2 µM [activator, partial curve].

Question: For `Cc1cc(NC(=O)COc2ccccc2)ccc1Cl`, which Potency is on record?
Answer: Its Potency is inconclusive: 18.3 µM [activator, single point].

Question: With `CCN(CC(=O)Nc1c(F)cccc1F)C(=O)CCC(=O)c1ccc(C)cc1` as the molecule, how does the Potency read?
Answer: Its Potency is inconclusive: 29.1 µM [activator, single point].

Question: For `O=[N+]([O-])c1ccc(CN2CCN(c3ccc(Cl)cc3)CC2)o1`, which Potency is on record?
Answer: The Potency was “inactive”.

Question: With `Cc1ccc(-n2nc3c(c2NC(=O)c2c(-c4ccccc4Cl)noc2C)CSC3)cc1` as the molecule, how does the Potency read?
Answer: Its Potency is “inactive”.

Question: With `O=C(c1cc(C2CC2)nc2ccc(Br)cc12)N1N=C(C(F)F)CC1(O)C(F)F` (configuration not stated) as the molecule, how does the Potency read?
Answer: The Potency was “inactive”.

Question: Which Potency does the source give for `COc1ccc(N(C(=O)/C=C/c2ccc(OC)c(OC)c2)C2=CC3CCC(C2)N3C)cc1` (configuration not stated) here?
Answer: Its Potency is “inactive”.

Question: With `C/C(=C\c1ccc(C(=O)O)cc1)c1ccc2c(c1)C(C)(C)CCC2(C)C` as the molecule, how does the Potency read?
Answer: The Potency was inconclusive: 35.5 µM [activator, partial curve, poor fit].

Question: With `CC(C)[C@H](NC(=O)c1ccccc1)C(=O)Nc1ccc2c(c1)OCO2` as the molecule, how does the Potency read?
Answer: Its Potency is inconclusive: 20.6 µM [activator, partial curve, poor fit].

Question: For `Cc1ccnc(NS(=O)(=O)c2ccc(NC(=O)CSc3nc(-c4ccccc4)cc(=O)[nH]3)cc2)n1`, which Potency is on record?
Answer: The Potency was “inactive”.

Question: Which Potency does the source give for `CN(C)CCN(C(=O)c1ccc2ccccc2c1)c1nc2cc3c(cc2s1)OCCO3` here?
Answer: The Potency was inconclusive: 29.1 µM [activator, single point].

Question: With `CCN(CC(=O)Nc1ccc(NC(C)=O)cc1)CC(=O)Nc1ccc(F)c(Cl)c1` as the molecule, how does the Potency read?
Answer: The Potency was inconclusive: 29.1 µM [inhibitor, partial curve, poor fit].

Question: With `Cc1cc(NC(=O)c2cnn3c(C(F)F)cc(-c4ccccc4)nc23)no1` as the molecule, how does the Potency read?
Answer: Its Potency is active: 8.2 µM.

Question: With `OCCNCCNCc1ccccc1OCc1ccccc1` as the molecule, how does the Potency read?
Answer: Its Potency is “inactive”.

Question: For `CCCCNc1nc2sc3c(c2c(=O)n1-c1cccc(Cl)c1)CCN(C)C3`, which Potency is on record?
Answer: Its Potency is inconclusive: 25.9 µM [inhibitor, partial curve, poor fit].

Question: With `CC1CCCN(c2ccc(C(=O)NCc3cccs3)cn2)C1` (configuration not stated) as the molecule, how does the Potency read?
Answer: The Potency was inconclusive: 4.61 µM [activator, full curve].

Question: For `CCn1nc(C)c(CN2CCC(n3nccc3NC(=O)c3ccc4c(c3)OCO4)CC2)c1C`, which Potency is on record?
Answer: Its Potency is “inactive”.

Question: Which Potency does the source give for `COc1ccc(CCNC(=S)NCCc2c[nH]c3ccccc23)cc1` here?
Answer: Its Potency is “inactive”.

Question: Which Potency does the source give for `O=C(N/N=C/c1cc(Cl)cc([N+](=O)[O-])c1O)c1cc(-c2ccccn2)nc2ccccc12` here?
Answer: The Potency was inconclusive: 13 µM [inhibitor, partial curve].

Question: For `CCCN(CC(=O)Nc1ccccc1C)C(=O)c1oc2ccc(OCC)cc2c1C`, which Potency is on record?
Answer: Its Potency is inconclusive: 12.6 µM [inhibitor, single point].

Question: With `Cc1cc(C)nc(NC(=NCCc2c[nH]c3ccccc23)NC(=O)Nc2cccc([N+](=O)[O-])c2)n1` as the molecule, how does the Potency read?
Answer: The Potency was active: 5.17 µM.

Question: With `CN(Cc1ccccc1NCC(=O)Nc1ccccc1C#N)C1CCCCC1` as the molecule, how does the Potency read?
Answer: The Potency was “inactive”.

Question: With `COCCN1C(=O)C(=O)/C(=C(/O)c2ccc(S(=O)(=O)N3CCOCC3)cc2)C1c1cccc([N+](=O)[O-])c1` (configuration not stated) as the molecule, how does the Potency read?
Answer: Its Potency is inconclusive: 29.1 µM [activator, partial curve, poor fit].

Question: With `N/C(=N\N=C\c1ccc([N+](=O)[O-])cc1)c1nonc1N` as the molecule, how does the Potency read?
Answer: The Potency was inconclusive: 1.46 µM [activator, full curve].

Question: For `CSC[C@@H]1NC(=S)N(c2ccc(C)cc2)C1=O`, which Potency is on record?
Answer: Its Potency is “inactive”.

Question: For `O=C(C1CCN(S(=O)(=O)N2CCOCC2)CC1)N1CCN(c2ccc(F)cc2)CC1`, which Potency is on record?
Answer: Its Potency is inconclusive: 16.4 µM [inhibitor, partial curve, poor fit].

Question: With `Cc1ccc(C)c(OCCC(=O)OCC(=O)N2CCN(S(=O)(=O)c3ccc(Cl)cc3)CC2)c1` as the molecule, how does the Potency read?
Answer: Its Potency is inconclusive: 29.1 µM [inhibitor, single point].

Question: With `CCCc1c(C(=O)Nc2ccc(F)cc2F)cnn1-c1ccccc1` as the molecule, how does the Potency read?
Answer: Its Potency is inconclusive: 18.3 µM [inhibitor, partial curve].

Question: With `O=C(NCc1csc(-c2cccs2)n1)Nc1ccc(C(F)(F)F)cc1` as the molecule, how does the Potency read?
Answer: Its Potency is inconclusive: 18.3 µM [inhibitor, single point].

Question: With `COc1cccc(OCc2cc(C(=O)NCc3ccccn3)no2)c1` as the molecule, how does the Potency read?
Answer: Its Potency is inconclusive: 20.6 µM [activator, partial curve].

Question: With `O=C(NCCCNCc1ccccc1)c1ccccn1` as the molecule, how does the Potency read?
Answer: The Potency was “inactive”.

Question: With `O=C(CCNS(=O)(=O)c1ccccc1Cl)N1CCN(c2ccccn2)CC1` as the molecule, how does the Potency read?
Answer: Its Potency is “inactive”.

Question: Which Potency does the source give for `CCc1c(C(=O)Nc2ncn(Cc3cccc(C)c3)n2)csc1C` here?
Answer: Its Potency is “inactive”.

Question: Which Potency does the source give for `CCCCCCOc1ccc(N2C(=O)CC(N3CCN(CCN=CC4C(=O)CC(C)(C)CC4=O)CC3)C2=O)cc1` (configuration not stated) here?
Answer: The Potency was “inactive”.

Question: With `N=c1n(N)c2ccccc2n1CC(=O)c1ccc(Br)cc1` as the molecule, how does the Potency read?
Answer: The Potency was inconclusive: 5.17 µM [activator, partial curve].

Question: For `Cn1nc(C(=O)Nc2nnc(C3CC3)s2)c2ccccc2c1=O`, which Potency is on record?
Answer: Its Potency is inconclusive: 23.1 µM [activator, single point].

Question: For `COCc1ccc(CN2CCC(C(=O)Nc3cccc(-c4cccc(Cl)c4)c3)CC2)o1`, which Potency is on record?
Answer: Its Potency is inconclusive: 16.4 µM [inhibitor, single point].

Question: With `COc1ccc(CNC(=O)CN(C(=O)CCC(=O)Nc2nccs2)c2ccc3c(c2)OCO3)cc1` as the molecule, how does the Potency read?
Answer: Its Potency is “inactive”.

Question: With `COc1cc(/C=N/Nc2nc(N3CCCC3)nc(N3CCCC3)n2)ccc1O` as the molecule, how does the Potency read?
Answer: The Potency was inconclusive: 23.1 µM [inhibitor, partial curve].

Question: With `CCc1cccc(C)c1NC(=O)CN1C(=O)NC(CCc2ccccc2)C1=O` (configuration not stated) as the molecule, how does the Potency read?
Answer: The Potency was “inactive”.

Question: With `COc1ccc(CCNc2ncnc3cc(OC)c(OC)cc23)cc1OC` as the molecule, how does the Potency read?
Answer: Its Potency is active: 8.2 µM.

Question: With `N=c1oc2c3c4c(cc2cc1C(=O)Nc1ccccc1)CCCN4CCC3` as the molecule, how does the Potency read?
Answer: The Potency was inconclusive: 3.66 µM [activator, full curve].
